Laboratory results from patent publication US20240000932A1 (BOOSTIMMUNE, published 2024).
These are yes or no findings as the source states them, for the method shown. Some binding calls cover weakened binding; strength is not graded here.

Target: T1, TCTP (as used in the immunoblotting and immunoprecipitation screen of Example 2-1) (UniProt P13693)
T1 sequence (looked up): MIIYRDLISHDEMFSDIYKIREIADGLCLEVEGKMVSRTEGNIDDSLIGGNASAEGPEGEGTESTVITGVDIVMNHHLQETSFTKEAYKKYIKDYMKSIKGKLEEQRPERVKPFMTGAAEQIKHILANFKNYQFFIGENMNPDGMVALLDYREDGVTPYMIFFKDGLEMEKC
Test: immunoblotting and immunoprecipitation screen of hybridoma antibodies

Binder | binding
anti-TCTP mouse monoclonal antibody 55F3 (antibody, V domains shown) VH: DVQLQESGPGLVKPSQSLSLTCTATGYSIASDYAWNWIRQFPGNKLEWMGYINYSGSTGYNPSLKSRISITRDTSKNQFFLQLNSVTTEDTATYYCARFEAGYWGQGTTLTVSS VL: DIKMTQSPSSMSASLGERVTITCKASQDINRYLSWFQQKPGKSPKTLIYRANRLVDGVPSRFSGSGSGQDYSLTISSLEYGDMGIYYCLQYNEFPLTFGAGTKLELKR | binds
anti-TCTP mouse monoclonal antibody 44E1 (antibody, V domains shown) VH: EVQLQQSDAELVKPGASVKISCKASGYTFTDHAIHWAKQKPEQGLEWIGYISPGNGDLKYNEKFKGKATLTTDKSSSTAYMQLNSLTSEDSAVYFCKSGWTLWGQGTTLTVSS VL: DIVMSQSPSSPVVSVGEKVTMSCKSSQSLLYRSNQKNYLVWYQLKPGQSPKLLIYWAFTRESGVPDRFTGSGSGTDFTLTISSVKAEDLAVYYCQQHYSYPWTFGGGTKLEVKR | binds
anti-TCTP mouse monoclonal antibody 51A9 (antibody, V domains shown) VH: DVQLQESGPGLVKPSQSLSLTCTATGYSITSDYAWNWIRQFPGNKLEWMGYINYSGSTGYNPSLKSRISITRDTSKNKFFLQLNSVTTEDTATYYCARFEAGYWGQGTTLTVSS VL: DIKMTQSPSSMYASLGERVTFTCKASQDINSYLSWFQQKPGKSPKTLIYRANRLVDGVPSRFSGSGSGQDYSLTISSLDYEDMGIYYCLQYYEFPLTFGAGTKLELKR | binds
